PubChem BioAssay AID1259405 – NCATS, 2018

- Screen: 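Knock-downs that lift recombinant protein yield in hamster ovary cells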 (primary screen)
- Cell system: Chinese hamster CHO-K1 ovary cells with stable secreted eGFP expression
- Knock-down reagent: single siRNA against mouse genes, 0.8 pmol siRNA per well (2 µl of 400 nM stock)
- Duration: 3 days
- Measured: 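Per-well intracellular GFP measured by laser scanning cytometry, plus viability from ATP luminescence, each relative to plate median of non-targeting control wells, in %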
- Direction: GFP, % of control: higher = more GFP per well, higher productivity; viability (ATP), % of control: higher = more viable cells (more ATP)
- Hit rule: 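Called active when intracellular GFP, relative to negative control, is at or above 120%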
In all, the deposit lists about 50,000 reagents; below is a part drawn at random. In the full data, about 4,000 (8%) were called active. 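Mouse siRNA library applied to hamster cells; one well for each siRNA.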 The numbers tell different reagents against one gene apart.

gene	siRNA no.	GFP, % of control	viability (ATP), % of control	activity call
Or5k16 (GeneID 258178)	1	92.8	74.7	inactive
Or5k16 (GeneID 258178)	2	72.3	48.3	inactive
Or5k16 (GeneID 258178)	3	50.4	88.9	inactive
Or8b3 (GeneID 258869)	1	107	59.2	inactive
Or8b3 (GeneID 258869)	2	58.2	50.9	inactive
Or8b3 (GeneID 258869)	3	71.8	79.2	inactive
Fbxo3 (GeneID 57443)	1	69	77.4	inactive
Fbxo3 (GeneID 57443)	2	67.6	77.4	inactive
Fbxo3 (GeneID 57443)	3	76	55.3	inactive
Snx25 (GeneID 102141)	1	115	120	inactive
Snx25 (GeneID 102141)	2	137	95.1	active
Snx25 (GeneID 102141)	3	80.3	73.4	inactive
Gopc (GeneID 94221)	1	92.7	89.5	inactive
Gopc (GeneID 94221)	2	66.6	80.4	inactive
Gopc (GeneID 94221)	3	82.3	93.6	inactive
P2ry4 (GeneID 57385)	1	104	77.9	inactive
P2ry4 (GeneID 57385)	2	118	84.2	inactive
P2ry4 (GeneID 57385)	3	97.5	60	inactive
Ubxn8 (GeneID 108159)	1	55.8	78.5	inactive
Ubxn8 (GeneID 108159)	2	56.3	69.9	inactive
Ubxn8 (GeneID 108159)	3	109	119	inactive
Mrpl55 (GeneID 67212)	1	85.8	62.6	inactive
Mrpl55 (GeneID 67212)	2	105	90.3	inactive
Mrpl55 (GeneID 67212)	3	108	40.4	inactive
Ikbkb (GeneID 16150)	1	87.7	87.9	inactive
Mterf3 (GeneID 66410)	1	61.2	98.5	inactive
Mterf3 (GeneID 66410)	2	69.3	56.5	inactive
Mterf3 (GeneID 66410)	3	45.1	120	inactive
Or5w12 (GeneID 258654)	1	75.1	63.2	inactive
Or5w12 (GeneID 258654)	2	104	40.9	inactive
Or5w12 (GeneID 258654)	3	80.5	73.9	inactive
Oxnad1 (GeneID 218885)	1	88.1	97.5	inactive
Oxnad1 (GeneID 218885)	2	70.3	71.3	inactive
Oxnad1 (GeneID 218885)	3	55.2	25.6	inactive
Mrgpra3 (GeneID 233222)	1	45.2	51.6	inactive
Mrgpra3 (GeneID 233222)	2	90	86.6	inactive
Mrgpra3 (GeneID 233222)	3	56.2	41	inactive
Stk-ps2 (GeneID 212225)	1	117	73.1	inactive
Stk-ps2 (GeneID 212225)	2	49.8	61.5	inactive
Stk-ps2 (GeneID 212225)	3	80.9	71.8	inactive
Smox (GeneID 228608)	1	121	67	active
Smox (GeneID 228608)	2	77.3	52.5	inactive
Smox (GeneID 228608)	3	63.6	96.4	inactive
Pfpl (GeneID 56093)	1	46.2	47.8	inactive
Pfpl (GeneID 56093)	2	69.6	40	inactive
Pfpl (GeneID 56093)	3	117	95.5	inactive
P2rx1 (GeneID 18436)	1	74.9	95.7	inactive
P2rx1 (GeneID 18436)	2	93.7	82.7	inactive
P2rx1 (GeneID 18436)	3	80.8	85	inactive
Ints9 (GeneID 210925)	1	82.8	118	inactive
Ints9 (GeneID 210925)	2	95.3	85.9	inactive
Ints9 (GeneID 210925)	3	190	106	active
Rcan2 (GeneID 53901)	1	70	54	inactive
Rcan2 (GeneID 53901)	2	81.8	71.2	inactive
Or8b50 (GeneID 258782)	1	114	82.1	inactive
Or8b50 (GeneID 258782)	2	146	47.8	active
Or8b50 (GeneID 258782)	3	53.3	91.4	inactive
Ociad2 (GeneID 433904)	1	94.5	76.2	inactive
Ociad2 (GeneID 433904)	2	74.8	104	inactive
Ociad2 (GeneID 433904)	3	86.2	55.1	inactive
Kcnk15 (GeneID 241769)	1	105	80.8	inactive
Kcnk15 (GeneID 241769)	2	57.2	101	inactive
Kcnk15 (GeneID 241769)	3	137	83.1	active
Bmi1 (GeneID 12151)	1	84.1	106	inactive
Bmi1 (GeneID 12151)	2	89.8	77.8	inactive
Arhgdig (GeneID 14570)	1	58.9	69	inactive
Arhgdig (GeneID 14570)	2	122	121	active
Arhgdig (GeneID 14570)	3	83.6	101	inactive
Pcbp3 (GeneID 59093)	1	94.2	84.3	inactive
Pcbp3 (GeneID 59093)	2	120	113	active
Gabre (GeneID 14404)	1	63.7	75.2	inactive
Gabre (GeneID 14404)	2	67.1	57.9	inactive
Gabre (GeneID 14404)	3	78.2	68.2	inactive
Minar1 (GeneID 209743)	1	95.2	54	inactive
Minar1 (GeneID 209743)	2	53	36	inactive
Minar1 (GeneID 209743)	3	77.6	89.7	inactive
Adam18 (GeneID 13524)	1	56.4	31.7	inactive
Adam18 (GeneID 13524)	2	84.7	78.3	inactive
Adam18 (GeneID 13524)	3	86.4	90.6	inactive
Aqp5 (GeneID 11830)	1	83.2	73.2	inactive
Aqp5 (GeneID 11830)	2	84.3	81.6	inactive
Aqp5 (GeneID 11830)	3	154	65.6	active
Nhlrc3 (GeneID 212114)	1	117	83.7	inactive
Nhlrc3 (GeneID 212114)	2	70.2	78.5	inactive
Nhlrc3 (GeneID 212114)	3	107	94.1	inactive
